Data from PMC3585336.
Construct, isoform or probe ends are uncertain for at least one entry. Results from cells or extracts need not show a direct contact. A negative result means that nothing was seen under these conditions. Tags and fusion partners may be left off the protein sequences shown.

Biological target: T1, Znf202 (mouse (cDNA from C57Bl/6JIco liver)) (UniProt Q99PG9)
T1 sequence (looked up, limits assumed): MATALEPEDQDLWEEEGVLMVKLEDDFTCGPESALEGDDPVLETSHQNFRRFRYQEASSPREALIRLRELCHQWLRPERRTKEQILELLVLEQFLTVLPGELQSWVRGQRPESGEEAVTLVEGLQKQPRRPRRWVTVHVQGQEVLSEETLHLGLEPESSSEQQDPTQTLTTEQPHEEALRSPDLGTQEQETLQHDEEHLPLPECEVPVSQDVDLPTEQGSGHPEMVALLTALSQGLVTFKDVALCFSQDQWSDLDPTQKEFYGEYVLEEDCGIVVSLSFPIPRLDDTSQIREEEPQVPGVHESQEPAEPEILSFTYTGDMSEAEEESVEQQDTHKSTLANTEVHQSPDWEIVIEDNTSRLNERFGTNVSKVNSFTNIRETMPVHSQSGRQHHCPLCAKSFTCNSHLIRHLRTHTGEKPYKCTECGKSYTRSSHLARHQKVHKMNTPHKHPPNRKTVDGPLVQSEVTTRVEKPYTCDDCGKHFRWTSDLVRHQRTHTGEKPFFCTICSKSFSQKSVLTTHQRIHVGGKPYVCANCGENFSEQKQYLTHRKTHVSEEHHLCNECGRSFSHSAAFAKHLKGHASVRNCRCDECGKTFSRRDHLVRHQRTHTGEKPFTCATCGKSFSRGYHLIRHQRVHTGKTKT
Assay: EMSA
Details: 5 mM MgCl2, 75 mM KCl, 1 mM DTT, 0.1 mM EDTA, 2 ug BSA, 2 ug poly(dI-dC), 0.1-0.6 ug whole cell extract, protein in a lysate after overexpression, label: 32P (T4 PNK)

CCGGCGCAGCCATTAAGGAGG (double strand) [PHO consensus]
binding result (no complex even at high extract amounts): no binding

GCTCTGTAGGGGTAGCTCTTCC (double strand) [apoE -564]
binding result (competed by 50-fold excess unlabeled -564): binds

TGCACATGCAGGGGTGCACACC (double strand) [apoE -678]
binding result (competed by 50-fold excess unlabeled -678): binds

GTGGGGTGGGGGTGGGGGGTCC (double strand) [GnT consensus]
binding result (competed by 50-fold excess unlabeled GnT): binds
